The list shows only some results of the screen, not a fair sample: it gathers tests that were run many times, whatever their T/C, doses with no T/C, and many T/C values between a quarter and a half above the control. Other doses and runs of a compound stand elsewhere. T/C: endpoint of the treated group in % of that of the vehicle group. Some doses have a count of surviving animals in place of a T/C: the source files T/C as zero there, which appears to mark a toxic dose or a test without result, not a measured value. Some doses without a T/C left all or most animals alive at the check, yet need not have been tolerated: the source hardly ever lists a survival T/C far under the control, and the zero likely stands for such cases as well. Counts of survivors are from the toxicity check (mostly the fifth day) where no day follows; animals may have died later. Schedule codes are those of the source, read here as Q, the interval in days (D) or hours (H), X, the number of doses. Some entries hold several experiments; the values are given in rising order. Where survival is the endpoint, the PubChem record calls one and a half times the control and up active, and a quarter to a half above the control has no call in these data; cut-offs in other NCI protocols can differ. Some T/C values carry the count of animals alive at the toxicity check (mostly the fifth day); without a count, all were alive then.
Test system: BDF1 mice, P388 leukemia ip, median survival T/C
Assay: NCI In Vivo Anticancer Drug Screen. Data for tumor model P388 Leukemia (intraperitoneal) in B6D2F1 (BDF1) mice
Conditions: T/C endpoint: median survival time, higher T/C = longer survival
Outline: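 Vehicle-dosed animals serve as the reference; survival of compound-dosed, tumour-implanted mice is divided by it.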

[1] = dose: 1.25 mg/kg/injection, schedule: Q04DX003 (ip), vehicle: saline
[2] = dose: 200.0 mg/kg/injection, schedule: Q01DX009 (ip), vehicle: saline
[3] = dose: 200.0 mg/kg/injection, schedule: Q04DX003 (ip), vehicle: saline
[4] = dose: 400.0 mg/kg/injection, schedule: Q04DX003 (ip), vehicle: saline
[5] = dose: 100.0 mg/kg/injection, schedule: Q01DX009 (ip), vehicle: saline
[6] = dose: 20.0 mg/kg/injection, schedule: Q01DX009 (ip), vehicle: Klucel (hydroxypropylcellulose) (HPC)
[7] = dose: 400.0 mg/kg/injection, schedule: Q04DX003 (ip), vehicle: Klucel (hydroxypropylcellulose) (HPC)

How did the T/C (dose: 0.11 mg/kg/injection, schedule: Q01DX009 (ip), vehicle: saline) turn out when `CCN1C=C/C(=C\C=C/c2cc[n+](CC)c3ccccc23)c2ccccc21` was run?
The T/C was 127 % of control.

And the T/C (dose: 0.17 mg/kg/injection, schedule: Q01DX009 (ip), vehicle: saline)?
The T/C was 145 % of control.

And the T/C (dose: 0.2 mg/kg/injection, schedule: Q01DX009 (ip), vehicle: saline)?
The T/C was 145 % of control.

And the T/C (dose: 0.25 mg/kg/injection, schedule: Q01DX009 (ip), vehicle: saline)?
Its T/C is 145 % of control.

What about the T/C (dose: 0.27 mg/kg/injection, schedule: Q04DX003 (ip), vehicle: saline) of the same compound?
Its T/C is 130 % of control.

And the T/C (dose: 0.38 mg/kg/injection, schedule: Q01DX009 (ip), vehicle: saline)?
Its T/C is 145 % of control.

What about the T/C (dose: 0.4 mg/kg/injection, schedule: Q01DX009 (ip), vehicle: saline) of the same compound?
The T/C was 146 % of control [5 of 6 alive].

What about the T/C (dose: 0.44 mg/kg/injection, schedule: Q04DX003 (ip), vehicle: saline) of the same compound?
The T/C was 133 and 140 % of control [5 of 6 alive].

And the T/C (dose: 0.5 mg/kg/injection, schedule: Q04DX003 (ip), vehicle: saline)?
The T/C was 127 % of control.

What about the survivor count (dose: 0.62 mg/kg/injection, schedule: Q01DX009 (ip), vehicle: saline) of the same compound?
The survivor count was 6 of 6.

And the T/C (dose: 0.66 mg/kg/injection, schedule: Q04DX003 (ip), vehicle: saline)?
Its T/C is 141 % of control.

What about the survivor count (dose: 0.82 mg/kg/injection, schedule: Q04DX003 (ip), vehicle: saline) of the same compound?
Its survivor count is 1 of 6.

What about the survivor count (dose: 0.93 mg/kg/injection, schedule: Q01DX009 (ip), vehicle: Klucel (hydroxypropylcellulose) (HPC)) of the same compound?
Its survivor count is 6 of 6.

What about the survivor count (dose: 0.93 mg/kg/injection, schedule: Q01DX009 (ip), vehicle: saline) of the same compound?
The survivor count was 1 of 6.

What about the survivor count (dose: 1.0 mg/kg/injection, schedule: Q01DX009 (ip), vehicle: saline) of the same compound?
The survivor count was 1 of 6.

What about the T/C (dose: 1.0 mg/kg/injection, schedule: Q04DX003 (ip), vehicle: saline) of the same compound?
Its T/C is 127 [5 of 6 alive], 137, 140 % of control [5 of 6 alive].

What about the T/C [1] of the same compound?
The T/C was 140 % of control.

And the survivor count [1]?
Its survivor count is 0 of 6 and 3 of 6.

What about the survivor count (dose: 1.87 mg/kg/injection, schedule: Q04DX003 (ip), vehicle: saline) of the same compound?
The survivor count was 2 of 6 and 4 of 6.

And the survivor count (dose: 2.0 mg/kg/injection, schedule: Q04DX003 (ip), vehicle: saline)?
The survivor count was 3 of 6.

What about the survivor count (dose: 2.5 mg/kg/injection, schedule: Q04DX003 (ip), vehicle: saline) of the same compound?
The survivor count was 1 of 6.

What about the survivor count (dose: 5.0 mg/kg/injection, schedule: Q04DX003 (ip), vehicle: alcohol) of the same compound?
Its survivor count is 4 of 6.

What about the survivor count (dose: 10.0 mg/kg/injection, schedule: Q04DX003 (ip), vehicle: alcohol) of the same compound?
The survivor count was 0 of 6.

What about the survivor count (dose: 20.0 mg/kg/injection, schedule: Q04DX003 (ip), vehicle: alcohol) of the same compound?
Its survivor count is 0 of 6.

And the T/C (dose: 66.0 micrograms/kg/injection, schedule: Q01DX009 (ip), vehicle: saline)?
The T/C was 125 % of control.

What about the T/C (dose: 100.0 micrograms/kg/injection, schedule: Q01DX009 (ip), vehicle: saline) of the same compound?
Its T/C is 125 % of control.

What about the T/C (dose: 150.0 micrograms/kg/injection, schedule: Q01DX009 (ip), vehicle: saline) of the same compound?
The T/C was 129 % of control.

Which results are given for `CN(C)Cc1c[nH]c2nccnc12`?
survivor count [2]: 3 of 6; survivor count [3]: 4 of 6; survivor count [4]: 0 of 6

`COc1ccc2cc1Oc1ccc(cc1)C[C@H]1c3cc(c(OC)cc3CCN1C)Oc1c(OC)c(OC)cc3c1[C@H](C2)N(C)CC3` was tested. Which survivor count [3] did it give?
The survivor count was 0 of 8.

With `FC(F)(F)c1ccc2c(c1)N(CCCN1CCN(CCN3CCCCC3)CC1)c1ccccc1S2` as the compound, how does the survivor count [5] read?
The survivor count was 0 of 6.

Which results are given for `Cc1c[n+]2c3ccccc3c3ccccc3c2s1`?
T/C (dose: 10.0 mg/kg/injection, schedule: Q01DX009 (ip), vehicle: Klucel (hydroxypropylcellulose) (HPC)): 131 % of control; T/C [6]: 136 % of control; survivor count [6]: 3 of 6; survivor count (dose: 40.0 mg/kg/injection, schedule: Q01DX009 (ip), vehicle: Klucel (hydroxypropylcellulose) (HPC)): 0 of 6; survivor count (dose: 40.0 mg/kg/injection, schedule: Q04DX003 (ip), vehicle: Klucel (hydroxypropylcellulose) (HPC)): 6 of 6; survivor count (dose: 80.0 mg/kg/injection, schedule: Q01DX009 (ip), vehicle: Klucel (hydroxypropylcellulose) (HPC)): 0 of 6; survivor count (dose: 100.0 mg/kg/injection, schedule: Q04DX003 (ip), vehicle: Klucel (hydroxypropylcellulose) (HPC)): 1 of 6; survivor count [7]: 0 of 6

`COc1cc(C=Nc2cc(Br)c(O)c(Br)c2)ccc1N(CCCl)CCCl` was tested. Which T/C (dose: 2.3 mg/kg/injection, schedule: Q04DX003 (ip), vehicle: Klucel (hydroxypropylcellulose) (HPC)) did it give?
Its T/C is 127 % of control.

What about the T/C (dose: 6.1 mg/kg/injection, schedule: Q01DX009 (ip), vehicle: Klucel (hydroxypropylcellulose) (HPC)) of the same compound?
The T/C was 129 % of control.

And the T/C (dose: 9.37 mg/kg/injection, schedule: Q01DX009 (ip), vehicle: Klucel (hydroxypropylcellulose) (HPC))?
The T/C was 141 % of control.

What about the T/C (dose: 14.1 mg/kg/injection, schedule: Q01DX009 (ip), vehicle: Klucel (hydroxypropylcellulose) (HPC)) of the same compound?
Its T/C is 136 % of control.

What about the T/C (dose: 18.75 mg/kg/injection, schedule: Q01DX009 (ip), vehicle: Klucel (hydroxypropylcellulose) (HPC)) of the same compound?
Its T/C is 140 % of control.

And the survivor count (dose: 28.12 mg/kg/injection, schedule: Q04DX003 (ip), vehicle: Klucel (hydroxypropylcellulose) (HPC))?
Its survivor count is 2 of 6.

What about the survivor count (dose: 75.0 mg/kg/injection, schedule: Q04DX003 (ip), vehicle: Klucel (hydroxypropylcellulose) (HPC)) of the same compound?
Its survivor count is 6 of 6.

For `NNc1nncn2c1cc1ccccc12`, which survivor count (dose: 200.0 mg/kg/injection, schedule: Q01DX009 (ip), vehicle: saline with Tween-80) is on record?
The survivor count was 2 of 6.

For `NNC(=O)c1ccc(Cl)cc1Nc1ccc(F)cc1`, which survivor count [3] is on record?
The survivor count was 0 of 6.

What does the source list for `O=C(O)C1CCSS1` (configuration not stated)?
survivor count (dose: 3.12 mg/kg/injection, schedule: Q01DX009 (ip), vehicle: saline): 6 of 6; survivor count (dose: 6.25 mg/kg/injection, schedule: Q01DX009 (ip), vehicle: saline): 6 of 6; survivor count (dose: 25.0 mg/kg/injection, schedule: Q01DX009 (ip), vehicle: saline): 5 of 6 and 6 of 6; survivor count [5]: 3 of 6; survivor count [2]: 0 of 6; survivor count [3]: 3 of 6; survivor count [4]: 0 of 6

How did the T/C (dose: 25.0 mg/kg/injection, schedule: Q01DX009 (ip), vehicle: Klucel (hydroxypropylcellulose) (HPC)) turn out when `CC(=O)OCc1c(COC(C)=O)c(-c2ccc(Cl)c(Cl)c2)n2c1CCC2` was run?
The T/C was 125 % of control.

What about the T/C (dose: 50.0 mg/kg/injection, schedule: Q01DX009 (ip), vehicle: Klucel (hydroxypropylcellulose) (HPC)) of the same compound?
The T/C was 129 % of control.

With `CCOC(=O)C(C(C)=O)C(=O)OCC` as the compound, how does the survivor count (dose: 200.0 mg/kg/injection, schedule: Q01DX009 (ip), vehicle: other) read?
The survivor count was 6 of 6.

With `CCS(=O)c1ncc2cnccn12` (configuration not stated) as the compound, how does the survivor count (dose: 12.5 mg/kg/injection, schedule: Q04DX003 (ip), vehicle: water) read?
The survivor count was 6 of 6.

And the survivor count (dose: 25.0 mg/kg/injection, schedule: Q01DX009 (ip), vehicle: water)?
The survivor count was 5 of 6.

What about the survivor count (dose: 25.0 mg/kg/injection, schedule: Q04DX003 (ip), vehicle: water) of the same compound?
Its survivor count is 6 of 6.

What about the survivor count (dose: 50.0 mg/kg/injection, schedule: Q04DX003 (ip), vehicle: water) of the same compound?
Its survivor count is 6 of 6.

And the survivor count (dose: 100.0 mg/kg/injection, schedule: Q04DX003 (ip), vehicle: water)?
The survivor count was 3 of 6.

What about the survivor count (dose: 200.0 mg/kg/injection, schedule: Q01DX009 (ip), vehicle: water) of the same compound?
Its survivor count is 1 of 6.

What about the survivor count (dose: 200.0 mg/kg/injection, schedule: Q04DX003 (ip), vehicle: water) of the same compound?
Its survivor count is 0 of 6.

Which T/C (dose: 25.0 mg/kg/injection, schedule: Q04DX003 (ip), vehicle: saline) does the source give for `C[C@@H]1C[C@H]2[C@@H]3CCC4=CC(=O)C=C[C@]4(C)[C@@]3(F)[C@@H](O)C[C@]2(C)[C@@]1(O)C(=O)CO` here?
The T/C was 127 % of control.

And the survivor count (dose: 100.0 mg/kg/injection, schedule: Q04DX003 (ip), vehicle: saline)?
The survivor count was 5 of 6.

What about the survivor count (dose: 125.0 mg/kg/injection, schedule: Q04DX003 (ip), vehicle: saline) of the same compound?
Its survivor count is 6 of 6.

What about the survivor count [3] of the same compound?
Its survivor count is 3 of 6.

With `Cc1cccc(CSc2ncnc3nc[nH]c23)n1` as the compound, how does the survivor count (dose: 200.0 mg/kg/injection, schedule: Q04DX003 (ip), vehicle: Klucel (hydroxypropylcellulose) (HPC)) read?
The survivor count was 6 of 6.

And the survivor count [7]?
The survivor count was 6 of 6.
